From PubChem BioAssay AID588497 (NMMLSC, 2011)
About 780 (0.22%) of roughly 360,000 compounds were called active. The inconclusive results got no clear call from the source; some entries with a clear call stand among them for comparison. Rule as the data show it: active = inhibition above about 35% (passing the limit was not always enough); inconclusive = no clear call, values can overlap the other calls.

The compounds below were run on Botulinum neurotoxin type F light chain protease (Clostridium botulinum) (assay: BoNT/F light chain protease inhibitors, primary screen, biochemical, flow cytometry, MLPCN library (AID 588497; also: plate controls were buffer without enzyme for full effect and enzyme alone for no effect)). Settings: Multiplex microsphere protease cleavage assay, at 10 µM, stronger effect = higher value.
For `O=C(NCCCc1ccccc1)C1CC1`, the inhibition was inactive: -8.6%.
In the case of `O=C(O)COc1ccccc1-c1nc(-c2ccccc2)c(-c2ccccc2)[nH]1`, the inhibition is reported as inconclusive: 13.2%.
In the case of `CC(NC(=O)c1ccco1)C(=O)OC(C)C(=O)NCc1ccccc1` (configuration not stated), the inhibition is reported as inactive: 6%.
With `Cc1ccccc1S(=O)(=O)NC(=O)C1(C)CCN1C(=O)CC(c1ccccc1)c1ccccc1` (configuration not stated) the inhibition was inactive: 4%.
With `CC(=O)c1c(C)[nH]c(C(=O)CN2CCN(S(=O)(=O)c3ccccc3)CC2)c1C` the inhibition was inactive: 6.4%.
In the case of `COc1ccc(C2=NO[C@@H]3C(=O)N(c4c(C)cccc4C)C(=O)[C@H]23)cc1OC`, the inhibition is reported as inactive: 0%.
`O=C(Nc1ccccc1C(F)(F)F)c1cc2ccccc2o1` was tested, and the inhibition was inconclusive: 21.5%.
`CCOc1ccc2nc(NC(=O)c3ccc(C)o3)sc2c1` was tested, and the inhibition was inconclusive: 3.2%.
With `O=[N+]([O-])c1ccc(N/N=C/c2ccccc2O)cc1` the inhibition was inconclusive: -40.3%.
For `Fc1ccc(-n2nnc(-c3ccccc3Br)n2)cc1`, the inhibition was inconclusive: -28.8%.
With `CC(C)CNC(=O)CN(c1ccccc1)S(=O)(=O)c1ccccc1[N+](=O)[O-]` the inhibition was inactive: -22%.
For `Cc1ccc2cc(C#N)c(N3CCCN(C(=S)NCCCN(C)C)CC3)nc2c1`, the inhibition was inconclusive: -7.8%.
With `CC(=O)/C(C#N)=C1\NC(=O)C(Cc2ccc(F)cc2)S1` (configuration not stated) the inhibition was inconclusive: 38.5%.
In the case of `O=C(NCCS(=O)(=O)N1CCCCC1)c1ccc2c(c1)OCO2`, the inhibition is reported as inactive: 7.8%.
With `COc1ccc(Br)cc1/C=N/N1CCN(Cc2ccccc2Cl)CC1` the inhibition was inconclusive: 14.4%.
With `O=C(Nc1cccc(O)c1)c1cccc(C(=O)Nc2cccc(O)c2)c1` the inhibition was inconclusive: -7.6%.
For `Cc1oc(C(C)(C)C)cc1C(=O)N1CCN(C(c2ccccc2)c2ccccc2)CC1`, the inhibition was inconclusive: -129%.
For `COC(=O)CCCc1nc2ccccc2s1`, the inhibition was inactive: -1.7%.
With `CC(C)Cn1cnc2c(c1=N)C(c1ccccc1)C1=C(CC(C)(C)CC1=O)O2` (configuration not stated) the inhibition was inconclusive: 37%.
In the case of `CC(C)(C)C1CCN2CCC[C@](c3ccccc3)(C1)C2OCCCO` (some centres not stated), the inhibition is reported as inactive: -5.1%.
In the case of `CC1=C(C(=O)OC(C)C)[C@@H](c2ccc(C)o2)NC(=O)N1`, the inhibition is reported as inactive: -0.2%.
`COC(=O)c1ccccc1C(=O)N(c1ccccc1)c1ccccc1` was tested, and the inhibition was inconclusive: -27%.
`O=C(O)COCC(=O)Nc1cc(C(F)(F)F)cc(C(F)(F)F)c1` was tested, and the inhibition was inconclusive: 59.7%.
`COc1cc(/C=N/NC2=NS(=O)(=O)c3ccccc32)ccc1OC(C)=O` was tested, and the inhibition was inactive: -5.4%.
With `Fc1cnc(Cl)nc1N1CCN(c2ccccc2)CC1` the inhibition was inconclusive: 61.9%.
`COc1cc(C(=O)NC(=S)NNC(=O)[C@H]2C[C@@H]2c2ccccc2)cc(OC)c1OC` was tested, and the inhibition was inconclusive: 8.6%.
`COc1ccc(CNC(=O)CC(C)c2ccccc2)cc1` (configuration not stated) was tested, and the inhibition was inactive: -5.3%.
With `O=C(O)C1=NN(c2ccccc2)C(=O)CC1` the inhibition was inconclusive: 24.4%.
For `CCS(CC)=NS(=O)(=O)c1ccc(NC(C)=O)cc1`, the inhibition was active: 37.4%.
With `O=C(COc1ccccc1)N1CCCCCCC1` the inhibition was inconclusive: 26.4%.
For `Cc1ccc(CC2C(=O)N(c3cc(Cl)ccn3)C(=O)C2C)cc1` (configuration not stated), the inhibition was inconclusive: -40.3%.
With `CCOC(=O)c1cc(C)n(-c2ccc(Cl)cc2)c1C` the inhibition was inconclusive: 8.3%.
`CC(C)(C)c1cc(NS(=O)(=O)c2cccs2)no1` was tested, and the inhibition was inconclusive: -7.7%.
For `NS(=O)(=O)c1cccc(NC(=O)C2CC(=O)N(Cc3ccco3)C2)c1` (configuration not stated), the inhibition was inconclusive: -8.4%.
`Cc1cc(C)c2c(CN3CCOCC3)cc(=O)oc2c1` was tested, and the inhibition was inconclusive: 0.1%.
`COCCN(CCOC)C(=O)N1CCOCC1` was tested, and the inhibition was inconclusive: 44.3%.
For `CC1(C)c2ccccc2N(CC(N)=O)C12C=Cc1ccccc1O2` (configuration not stated), the inhibition was inconclusive: 22.8%.
With `CCc1nc2c(OCc3cccc(Cl)c3)cccn2c1N(C)C(=O)c1ccncc1` the inhibition was inactive: -3.6%.
`CC(C)COP(=O)(c1ccc(N(C)C)cc1)C(O)c1cccnc1` (configuration not stated) was tested, and the inhibition was inconclusive: -33.2%.
In the case of `O=C(OCC(=O)c1c[nH]c2ccccc12)c1ccc(OC(F)F)cc1`, the inhibition is reported as inactive: -5.2%.
For `OCCCNc1ncnc2c1ncn2[C@H]1CN(Cc2ccco2)C[C@@H](CO)O1`, the inhibition was inactive: 0.3%.
For `Cc1ccc(Cl)cc1N1CCN(C(=O)CCC(=O)O)CC1`, the inhibition was inconclusive: -8.6%.
In the case of `CC1CCc2c(sc(NC(=O)CSc3ncn[nH]3)c2C#N)C1` (configuration not stated), the inhibition is reported as inconclusive: -65.8%.
In the case of `O=C(CNC(=O)c1ccc2ccccc2c1)NC1CCCCC1`, the inhibition is reported as inconclusive: 7.4%.
With `C[C@@H]1CN([C@@H](C)CO)C(=O)c2cc(NS(=O)(=O)c3ccc(F)cc3)ccc2O[C@@H](C)CCCCO[C@H]1CN(C)C(=O)NC1CCCCC1` the inhibition was inactive: 4.3%.
In the case of `O=C(NCCNc1ccc([N+](=O)[O-])cc1)c1ccccc1F`, the inhibition is reported as inconclusive: -12.6%.
With `COC(=O)[C@@H](C)NC(=O)c1ccc2oc(CCc3ccccc3)nc2c1` the inhibition was inconclusive: -17%.
`N/C(CSc1ccccn1)=N\OCc1c(Cl)cccc1Cl` was tested, and the inhibition was inconclusive: -17.7%.
With `COc1cc(CN2C[C@@H](CO)O[C@@H](n3cnc4c(N5CCCC5)ncnc43)C2)cc(OC)c1OC` the inhibition was inactive: 0.9%.
`Cc1ccc(S(=O)(=O)N2C[C@H]3C(=O)C[C@@H](c4ccccc4C)N(S(=O)(=O)c4ccc(C)cc4)[C@H]3C[C@H]2c2ccccc2)cc1` was tested, and the inhibition was inactive: -5.2%.
`Cc1ccc(S(=O)(=O)Oc2ccc3ccc(O)cc3c2)cc1` was tested, and the inhibition was inconclusive: -41.1%.
`Cc1ccc(/C=N/NC(=O)Cc2cccn2C)cc1` was tested, and the inhibition was inconclusive: 28.3%.
`O=C(CN1CCN(c2ccc([N+](=O)[O-])cc2)CC1)c1ccccc1` was tested, and the inhibition was inconclusive: 0%.
`Cc1ccc(-n2c(C(C)C)nc3oc4ccccc4c(=O)c3c2=O)cc1` was tested, and the inhibition was inconclusive: 47.8%.
In the case of `Cc1cccc(NC(=O)c2c(O)c3ccccc3[nH]c2=O)c1`, the inhibition is reported as inactive: -17.5%.
With `N#CCc1ccc(Oc2ccc([N+](=O)[O-])cn2)cc1` the inhibition was inactive: -3.3%.
With `Nc1c2ccccc2nc2ccccc12` the inhibition was inconclusive: -82.6%.
`Cc1cc(C)n(-c2ccc(NN=C(C#N)C#N)cc2)n1` was tested, and the inhibition was inconclusive: -24.5%.
`O=C(Nc1ccc2c(c1)OCO2)N1CCN(C/C=C/c2ccccc2)CC1` was tested, and the inhibition was inactive: -4.1%.
In the case of `O=C(CSc1nnc(-c2ccc(C(F)(F)F)cn2)o1)Nc1ccccc1Cl`, the inhibition is reported as inconclusive: 32.3%.
`CC(=O)Oc1ccc(C(=O)Nc2ccccc2C(=O)Nc2cccc(C(=O)O)c2)cc1` was tested, and the inhibition was inconclusive: -1.3%.
With `COc1ccc(N2C(=O)/C(=C/c3ccc(C)o3)C(=O)NC2=S)c(OC)c1` the inhibition was inconclusive: -13.1%.
`Cc1ccccc1C(=O)Nc1cccc(C(=O)Nc2ccccc2C(=O)O)c1` was tested, and the inhibition was inconclusive: 10.4%.
With `CSc1nc2ccc(NC(=O)c3ccc(Cl)s3)cc2s1` the inhibition was inactive: -3.2%.
With `COc1cccc2cc(C(=O)C3=C(O)C(=O)N(CCN(C)C)C3c3ccc(F)cc3)oc12` (configuration not stated) the inhibition was inactive: 1.6%.
For `Cc1c(NC(=O)CSc2ncnc3c2cnn3-c2ccccc2)c(=O)n(-c2ccccc2)n1C`, the inhibition was inconclusive: 16.8%.
For `O=C(CO/N=C/c1cccc([N+](=O)[O-])c1)Nc1ccc2ccccc2c1`, the inhibition was inconclusive: 32.4%.
`C=CCc1c(Cl)nc(C)nc1NCc1ccccc1` was tested, and the inhibition was inconclusive: 61.6%.
In the case of `O=C(NC1CCN(C(=O)c2cccc([N+](=O)[O-])c2)CC1)c1ccccc1`, the inhibition is reported as inconclusive: 24.6%.
`Cc1cc(C)c(C(O)c2ncc(-c3cccc(F)c3)[nH]2)c(C)c1` (configuration not stated) was tested, and the inhibition was inactive: -4.5%.
With `COC(=O)[C@H](Cc1ccccc1)NC(=O)N1CCCCC1` the inhibition was inconclusive: -21.7%.
For `COc1ccc(NC(=O)C(=O)N/N=C(\C)CC(=O)Nc2cc(C)ccn2)c(OC)c1`, the inhibition was inconclusive: 95.5%.
For `CCC(C)N(C(=O)Cn1nnc(-c2ccc(F)cc2)n1)C1CCS(=O)(=O)C1` (configuration not stated), the inhibition was inactive: -4.7%.
With `O=C1CN(C(=O)COc2ccc(F)cc2Br)c2ccccc2N1` the inhibition was inactive: -0.9%.
In the case of `COC(=O)CN1C(=O)c2cccc3cccc1c23`, the inhibition is reported as inconclusive: -31.6%.
With `COc1cc2cc3c(N)c(C(=O)Nc4sc(C)c(C)c4C#N)sc3nc2cc1OC` the inhibition was inactive: 5%.
`O=C(NCc1ccco1)c1cccc(F)c1` was tested, and the inhibition was inactive: -2.1%.
`CNC(=O)[C@@]1(C)C=C[C@@H](Cc2ccccc2)N1C(=O)OC` was tested, and the inhibition was inactive: -1%.
`Cc1cc(=O)[nH]c(N2CCN(C(c3ccccc3)c3ccccc3)CC2)n1` was tested, and the inhibition was inconclusive: -58.2%.
`CCOc1ccccc1CN1C(=O)C2(OCCO2)c2ccccc21` was tested, and the inhibition was inconclusive: -2.8%.
`COc1cccc(-n2c(C)nn(C)c2=O)c1` was tested, and the inhibition was inactive: -5.1%.
In the case of `CNC1(c2ccccc2Cl)CCCCC1=O` (configuration not stated), the inhibition is reported as inactive: -3.5%.
`COc1ccc(OCc2nc(-c3ccc(F)c(F)c3)cs2)cc1` was tested, and the inhibition was inconclusive: 54.5%.
In the case of `CCOC(=O)c1ccc(NC(=O)Cn2nc(C)c3ccccc3c2=O)cc1`, the inhibition is reported as inconclusive: -31.5%.
For `COc1cc2c(cc1OC)C(c1cccc(Br)c1)CC(=O)N2` (configuration not stated), the inhibition was inconclusive: 33.8%.
With `O=C(Nc1cccc(Cl)c1)OC1CN2CCC1CC2` (configuration not stated) the inhibition was inconclusive: 64.9%.
With `CN(C)c1ccnc(N(Cc2ccccc2)Cc2ccccc2)c1C#N` the inhibition was inactive: -11.4%.
`CC1=C(C(=O)OCC2CCCO2)C(c2cccc(C(F)(F)F)c2)C2=C(CC(c3ccco3)CC2=O)N1` (configuration not stated) was tested, and the inhibition was inactive: -9.9%.
In the case of `CCCCn1c(O)c(C(C)=NCCCn2ccnc2)c(=O)[nH]c1=O`, the inhibition is reported as inactive: -0.3%.
In the case of `Cc1cc(NCCO)nc(N2CCOCC2)n1`, the inhibition is reported as inconclusive: 3.4%.
In the case of `N#Cc1nc(-c2ccco2)oc1NCc1ccccc1Cl`, the inhibition is reported as inconclusive: 74.5%.
With `Cc1nc(=O)c(-c2ccccc2)c(C)n1-c1cccc(/C=C/C(=O)O)c1` the inhibition was inactive: 10.8%.
